PubChem BioAssay AID743121 – NCATS, 2013
Test: 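Genes whose silencing strengthens cell killing by camptothecin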 (primary screen). Cell system: MDA-MB-231 cells, a human breast cancer line. Knock-down reagent: single siRNA against human genes, 20 nM siRNA (0.8 pmol per well). Timing: 120 h (drug added 48 h after transfection, read 72 h later). Challenge: camptothecin 20 nM (about EC30) for 72 h; vehicle 0.1% DMSO in parallel plates. Detection: 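Cell viability by ATP luminescence (CellTiter-Glo) as % of non-targeting siRNA wells, and the log2 ratio of viability without drug over viability with camptothecin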. Direction: log2 vehicle/camptothecin viability: higher = stronger sensitisation to camptothecin. Rule for the call: 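Each gene scored by redundant siRNA activity (RSA) over its individual siRNA ratios; a gene is called active at p < 0.001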.
Shown is one part, drawn at random, of about 26,000 deposited reagents. Over the whole deposit, 167 (0.63%) are marked active. 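Calls are per gene from RSA p-values that are not deposited; an individual active-marked siRNA can sensitise only weakly.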 Reagents against one gene are numbered here. Not all columns of the deposit are shown. Reagent sequences are not shown.

HEYL #1
- log2 vehicle/camptothecin viability: -0.939
- Call: inactive

HEYL #2
- log2 vehicle/camptothecin viability: -0.315
- Call: inactive

HEYL #3
- log2 vehicle/camptothecin viability: -0.0384
- Call: inactive

HEYL #4
- log2 vehicle/camptothecin viability: -0.517
- Call: inactive

CDC23 #1
- log2 vehicle/camptothecin viability: 0.255
- Call: inactive

CDC23 #2
- log2 vehicle/camptothecin viability: -0.141
- Call: inactive

CDC23 #3
- log2 vehicle/camptothecin viability: 0.408
- Call: inactive

CDC23 #4
- log2 vehicle/camptothecin viability: 1.19
- Call: inactive

FST #1
- log2 vehicle/camptothecin viability: -0.4
- Call: inactive

FST #2
- log2 vehicle/camptothecin viability: 0.11
- Call: inactive

FST #3
- log2 vehicle/camptothecin viability: 0.0712
- Call: inactive

FST #4
- log2 vehicle/camptothecin viability: -0.266
- Call: inactive

RSPO3 #1
- log2 vehicle/camptothecin viability: -0.234
- Call: inactive

RSPO3 #2
- log2 vehicle/camptothecin viability: -0.0487
- Call: inactive

RSPO3 #3
- log2 vehicle/camptothecin viability: -0.291
- Call: inactive

EPHA1 #1
- log2 vehicle/camptothecin viability: -0.2
- Call: inactive

EPHA1 #2
- log2 vehicle/camptothecin viability: -0.114
- Call: inactive

EPHA1 #3
- log2 vehicle/camptothecin viability: -0.0386
- Call: inactive

EPHA1 #4
- log2 vehicle/camptothecin viability: 0.0391
- Call: inactive

TMEM176B #1
- log2 vehicle/camptothecin viability: -0.107
- Call: inactive

TMEM176B #2
- log2 vehicle/camptothecin viability: 0.183
- Call: inactive

TMEM176B #3
- log2 vehicle/camptothecin viability: -0.31
- Call: inactive

TMEM176B #4
- log2 vehicle/camptothecin viability: 0.315
- Call: inactive

BAD #1
- log2 vehicle/camptothecin viability: -0.232
- Call: inactive

BAD #2
- log2 vehicle/camptothecin viability: -0.099
- Call: inactive

BAD #3
- log2 vehicle/camptothecin viability: -0.485
- Call: inactive

BAD #4
- log2 vehicle/camptothecin viability: 0.00542
- Call: inactive

S100A13 #1
- log2 vehicle/camptothecin viability: -0.191
- Call: inactive

S100A13 #2
- log2 vehicle/camptothecin viability: -0.276
- Call: inactive

S100A13 #3
- log2 vehicle/camptothecin viability: -0.407
- Call: inactive

S100A13 #4
- log2 vehicle/camptothecin viability: -0.0241
- Call: inactive

SLC35B2 #1
- log2 vehicle/camptothecin viability: 0.299
- Call: inactive

SLC35B2 #2
- log2 vehicle/camptothecin viability: 0.252
- Call: inactive

SLC35B2 #3
- log2 vehicle/camptothecin viability: -0.493
- Call: inactive

SLC35B2 #4
- log2 vehicle/camptothecin viability: -0.642
- Call: inactive

Not a retest: an excerpt of the list.
HEYL #1
- log2 vehicle/camptothecin viability: -0.939
- Call: inactive

HEYL #2
- log2 vehicle/camptothecin viability: -0.315
- Call: inactive

HEYL #3
- log2 vehicle/camptothecin viability: -0.0384
- Call: inactive
